The source of these data is paper doi:10.1101/2023.08.01.551421 (bioRxiv, 2023).

These are yes or no findings as the source states them, for the method shown. Some results given as binding are weak or reduced against the parent protein; the word gives no strength.

Assay [1] deals with GBP1 M139D, non-farnesylated (human) (UniProt P32455). As to the kind of experiment: SEC. (SEC sorts molecules by how far they enter the pores of the column.)
Assay [2] has as its target T1, human guanylate-binding protein 1 (GBP1), wild type, farnesylated (human), P32455.
T1 chain: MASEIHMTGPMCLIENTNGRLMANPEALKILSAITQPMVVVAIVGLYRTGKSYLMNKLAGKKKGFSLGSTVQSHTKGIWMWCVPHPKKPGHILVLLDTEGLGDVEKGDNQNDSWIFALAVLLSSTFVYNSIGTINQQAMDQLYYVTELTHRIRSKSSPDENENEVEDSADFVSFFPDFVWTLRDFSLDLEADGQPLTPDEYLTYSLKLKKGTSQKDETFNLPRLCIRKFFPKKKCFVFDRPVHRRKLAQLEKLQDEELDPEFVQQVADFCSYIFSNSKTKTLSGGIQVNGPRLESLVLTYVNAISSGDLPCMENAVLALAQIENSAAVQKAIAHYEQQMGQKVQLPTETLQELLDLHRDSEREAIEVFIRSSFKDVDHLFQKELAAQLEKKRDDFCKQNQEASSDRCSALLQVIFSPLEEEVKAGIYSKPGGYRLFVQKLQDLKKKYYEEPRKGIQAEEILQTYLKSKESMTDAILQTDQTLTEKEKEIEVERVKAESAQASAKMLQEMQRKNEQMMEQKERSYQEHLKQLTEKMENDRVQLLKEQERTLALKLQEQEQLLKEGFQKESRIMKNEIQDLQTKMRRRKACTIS
The assay is described as follows: negative-stain TEM. Particulars: remark: other sources report otherwise.

The target of assay [3] is T1, human guanylate-binding protein 1 …. The assay is described as follows: cryo-EM structure. As to conditions: remark: other sources report otherwise.
Assay [4] has the same target. The assay is described as follows: negative-stain TEM. Particulars: remark: other sources report otherwise.
Assay [5] shares this target. As to the kind of experiment: sedimentation assay. Particulars: remark: other sources report otherwise.
The target is the same in assay [6]. As to the kind of experiment: sedimentation assay. Particulars: remark: other sources report otherwise.
For assay [7] the target is unchanged. As to the kind of experiment: light scattering-based polymerization assay. As to conditions: remark: other sources report otherwise.
The target is the same in assay [8]. The assay is described as follows: cross-linking. Particulars: remark: other sources report otherwise.
The target is the same in assay [9]. As to the kind of experiment: light scattering-based polymerization assay. As to conditions: remark: other sources report otherwise.

On to “GBP1 M139D, non-farnesylated (from UniProt P32455 1-592)”, for which the binding entry in assay [1] was “no binding (tested: 20 µM)”.

B1: human guanylate-binding protein 1 (GBP1), wild type, farnesylated, P32455 (natural protein)
chain: MASEIHMTGPMCLIENTNGRLMANPEALKILSAITQPMVVVAIVGLYRTGKSYLMNKLAGKKKGFSLGSTVQSHTKGIWMWCVPHPKKPGHILVLLDTEGLGDVEKGDNQNDSWIFALAVLLSSTFVYNSIGTINQQAMDQLYYVTELTHRIRSKSSPDENENEVEDSADFVSFFPDFVWTLRDFSLDLEADGQPLTPDEYLTYSLKLKKGTSQKDETFNLPRLCIRKFFPKKKCFVFDRPVHRRKLAQLEKLQDEELDPEFVQQVADFCSYIFSNSKTKTLSGGIQVNGPRLESLVLTYVNAISSGDLPCMENAVLALAQIENSAAVQKAIAHYEQQMGQKVQLPTETLQELLDLHRDSEREAIEVFIRSSFKDVDHLFQKELAAQLEKKRDDFCKQNQEASSDRCSALLQVIFSPLEEEVKAGIYSKPGGYRLFVQKLQDLKKKYYEEPRKGIQAEEILQTYLKSKESMTDAILQTDQTLTEKEKEIEVERVKAESAQASAKMLQEMQRKNEQMMEQKERSYQEHLKQLTEKMENDRVQLLKEQERTLALKLQEQEQLLKEGFQKESRIMKNEIQDLQTKMRRRKACTIS
modifications: here or on the partner: farnesyl moiety, C-terminal (CaaX box motif); farnesyl moiety, C-terminal (CaaX box motif)
In the case of B1, the binding entry in assay [2], in assay [3], in assay [4], in assay [5], in assay [6] and in assay [7] was “binds” throughout. In addition, the binding entry in assay [8] and in assay [9] was “binds” in each case.
